No constants are given. Whether binding was seen depends on the method and setting. In cells and extracts the contact can be indirect. A yes stands for co-enrichment or nearness to the bait. Other partners may have been found. Each block holds one molecule with its values, some of them ahead of it.
Target: T1, HNF4α (mouse (endogenous in villus cells of C57BL/6 mice)) (UniProt P49698)
T1 sequence: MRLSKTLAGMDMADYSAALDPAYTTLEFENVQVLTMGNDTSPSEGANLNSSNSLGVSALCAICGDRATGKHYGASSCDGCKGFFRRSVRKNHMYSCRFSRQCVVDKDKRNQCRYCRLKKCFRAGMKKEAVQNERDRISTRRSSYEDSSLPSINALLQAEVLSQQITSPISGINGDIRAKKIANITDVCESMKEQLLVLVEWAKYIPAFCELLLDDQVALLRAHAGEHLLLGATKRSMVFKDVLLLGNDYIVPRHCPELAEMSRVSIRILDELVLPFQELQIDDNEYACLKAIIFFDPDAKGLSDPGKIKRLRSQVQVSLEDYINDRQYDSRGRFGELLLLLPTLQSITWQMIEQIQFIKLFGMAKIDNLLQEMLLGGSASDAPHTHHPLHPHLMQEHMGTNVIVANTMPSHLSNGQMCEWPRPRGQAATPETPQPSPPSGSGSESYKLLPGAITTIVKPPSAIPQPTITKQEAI
Assay: affinity purification with mass spectrometry

Chains of the proteins cited; added tags and fusions are not shown.
UniProt Q9CW03: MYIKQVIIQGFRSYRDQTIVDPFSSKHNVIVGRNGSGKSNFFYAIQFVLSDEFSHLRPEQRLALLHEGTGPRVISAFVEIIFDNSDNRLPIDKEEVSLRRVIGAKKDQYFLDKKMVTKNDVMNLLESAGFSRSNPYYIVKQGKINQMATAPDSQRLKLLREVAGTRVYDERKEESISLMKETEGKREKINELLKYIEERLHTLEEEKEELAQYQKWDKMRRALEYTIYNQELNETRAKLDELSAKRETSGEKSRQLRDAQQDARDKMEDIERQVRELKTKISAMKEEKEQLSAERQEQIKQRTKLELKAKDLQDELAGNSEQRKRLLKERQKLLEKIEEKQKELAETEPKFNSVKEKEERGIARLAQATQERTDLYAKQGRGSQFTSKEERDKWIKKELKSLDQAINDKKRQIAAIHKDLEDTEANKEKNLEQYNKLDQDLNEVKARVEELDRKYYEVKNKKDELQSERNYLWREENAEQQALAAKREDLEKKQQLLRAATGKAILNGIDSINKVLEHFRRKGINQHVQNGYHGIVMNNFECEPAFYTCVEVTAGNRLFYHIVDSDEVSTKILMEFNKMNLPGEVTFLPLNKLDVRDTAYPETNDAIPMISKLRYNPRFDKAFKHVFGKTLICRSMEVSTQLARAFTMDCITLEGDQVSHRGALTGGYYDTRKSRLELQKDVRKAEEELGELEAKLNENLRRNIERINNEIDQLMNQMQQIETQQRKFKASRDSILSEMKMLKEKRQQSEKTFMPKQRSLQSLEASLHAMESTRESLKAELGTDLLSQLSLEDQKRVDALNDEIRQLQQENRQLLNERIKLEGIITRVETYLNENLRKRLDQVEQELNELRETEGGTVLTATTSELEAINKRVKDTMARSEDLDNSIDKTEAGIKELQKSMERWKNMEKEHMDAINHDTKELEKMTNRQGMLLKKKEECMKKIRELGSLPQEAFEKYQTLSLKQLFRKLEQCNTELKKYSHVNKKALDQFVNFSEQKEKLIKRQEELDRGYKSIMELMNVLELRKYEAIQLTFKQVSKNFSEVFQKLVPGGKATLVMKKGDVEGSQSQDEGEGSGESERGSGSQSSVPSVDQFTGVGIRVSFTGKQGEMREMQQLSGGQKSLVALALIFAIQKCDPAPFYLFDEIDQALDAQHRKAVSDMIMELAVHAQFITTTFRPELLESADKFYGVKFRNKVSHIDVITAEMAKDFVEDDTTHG

binding: binds
Molecule: SMC3 (from UniProt Q9CW03 1-1217)

binding: binds
B1: SMC1A (protein, UniProt Q9CU62 1-1233)
chain: MGFLKLIEIENFKSYKGRQIIGPFQRFTAIIGPNGSGKSNLMDAISFVLGEKTSNLRVKTLRDLIHGAPVGKPAANRAFVSMVYSEEGAEDRTFARVIVGGSSEYKINNKVVQLHEYSEELEKLGILIKARNFLVFQGAVESIAMKNPKERTALFEEISRSGELAQEYDKRKKEMVKAEEDTQFNYHRKKNIAAERKEAKQEKEEADRYQRLKDEVVRAQVQLQLFKLYHNEVEIEKLNKELASKNKEIEKDKKRMDKVEDELKEKKKELGKMMREQQQIEKEIKEKDSELNQKRPQYIKAKENTSHKIKKLEAAKKSLQNAQKHYKKRKGDMDELEKEMLSVEKARQEFEERMEEESQSQGRDLTLEENQVKKYHRLKEEASKRAATLAQELEKFNRDQKADQDRLDLEERKKVETEAKIKQKLREIEENQKRIEKLEEYITTSKQSLEEQKKLEGELTEEVEMAKRRIDEINKELNQVMEQLGDARIDRQESSRQQRKAEIMESIKRLYPGSVYGRLIDLCQPTQKKYQIAVTKVLGKNMDAIIVDSEKTGRDCIQYIKEQRGEPETFLPLDYLEVKPTDEKLRELKGAKLVIDVIRYEPPHIKKALQYACGNALVCDNVEDARRIAFGGHQRHKTVALDGTLFQKSGVISGGASDLKAKARRWDEKAVDKLKEKKERLTEELKEQMKAKRKEAELRQVQSQAHGLQMRLKYSQSDLEQTKTRHLALNLQEKSKLESELANFGPRINDIKRIIQSREREMKDLKEKMNQVEDEVFEEFCREIGVRNIREFEEEKVKRQNEIAKKRLEFENQKTRLGIQLDFEKNQLKEDQDKVHMWEQTVKKDENEIEKLKKEEQRHMKIIDETMAQLQDLKNQHLAKKSEVNDKNHEMEEIRKKLGGANKEMTHLQKEVTAIETKLEQKRSDRHNLLQACKMQDIKLPLSKGTMDDISQEEGSSQGEESVSGSQRTSSIYAREALIEIDYGDLCEDLKDAQAEEEIKQEMNTLQQKLNEQQSVLQRIAAPNMKAMEKLESVRDKFQETSDEFEAARKRAKKAKQAFEQIKKERFDRFNACFESVATNIDEIYKALSRNSSAQAFLGPENPEEPYLDGINYNCVAPGKRFRPMDNLSGGEKTVAALALLFAIHSYKPAPFFVLDEIDAALDNTNIGKVANYIKEQSTCNFQAIVISLKEEFYTKAESLIGVYPEQGDCVISKVLTFDLTKYPDANPNPNEQ

Reference: paper doi:10.1101/2023.11.08.566322
